Reference: the supplement of paper PMC10849652
The list shows a part of the results.

By UniProt entry, the sequences of proteins in these tests, tags left out. Where a name states a change or a piece, a line headed by the entry shows the natural chain unless it says otherwise.
UniProt O00408, whole entry, looked up: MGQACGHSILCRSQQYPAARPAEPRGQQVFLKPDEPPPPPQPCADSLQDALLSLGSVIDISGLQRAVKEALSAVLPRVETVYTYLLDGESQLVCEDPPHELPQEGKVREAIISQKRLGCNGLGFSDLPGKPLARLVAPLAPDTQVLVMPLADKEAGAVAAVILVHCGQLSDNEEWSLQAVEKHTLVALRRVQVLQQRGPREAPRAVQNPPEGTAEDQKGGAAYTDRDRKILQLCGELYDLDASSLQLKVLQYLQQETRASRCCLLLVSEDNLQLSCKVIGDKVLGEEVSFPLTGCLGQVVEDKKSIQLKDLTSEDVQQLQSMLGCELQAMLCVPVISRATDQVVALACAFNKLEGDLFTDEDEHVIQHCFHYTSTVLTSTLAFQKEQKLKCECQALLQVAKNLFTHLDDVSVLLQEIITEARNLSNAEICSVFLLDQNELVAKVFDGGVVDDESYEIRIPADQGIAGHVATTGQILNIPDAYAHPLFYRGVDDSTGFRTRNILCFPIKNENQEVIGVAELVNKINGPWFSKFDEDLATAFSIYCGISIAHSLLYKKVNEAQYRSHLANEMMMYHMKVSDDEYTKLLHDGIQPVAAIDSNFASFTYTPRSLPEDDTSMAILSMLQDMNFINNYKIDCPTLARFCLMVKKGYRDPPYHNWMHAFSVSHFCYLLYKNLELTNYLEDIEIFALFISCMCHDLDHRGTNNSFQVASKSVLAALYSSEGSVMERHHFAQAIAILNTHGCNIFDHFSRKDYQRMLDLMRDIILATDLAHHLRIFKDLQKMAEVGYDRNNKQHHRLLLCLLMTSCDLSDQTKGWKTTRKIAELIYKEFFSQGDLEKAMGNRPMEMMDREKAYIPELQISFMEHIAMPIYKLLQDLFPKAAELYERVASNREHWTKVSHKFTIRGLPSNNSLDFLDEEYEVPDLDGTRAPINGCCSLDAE
UniProt Q9H300: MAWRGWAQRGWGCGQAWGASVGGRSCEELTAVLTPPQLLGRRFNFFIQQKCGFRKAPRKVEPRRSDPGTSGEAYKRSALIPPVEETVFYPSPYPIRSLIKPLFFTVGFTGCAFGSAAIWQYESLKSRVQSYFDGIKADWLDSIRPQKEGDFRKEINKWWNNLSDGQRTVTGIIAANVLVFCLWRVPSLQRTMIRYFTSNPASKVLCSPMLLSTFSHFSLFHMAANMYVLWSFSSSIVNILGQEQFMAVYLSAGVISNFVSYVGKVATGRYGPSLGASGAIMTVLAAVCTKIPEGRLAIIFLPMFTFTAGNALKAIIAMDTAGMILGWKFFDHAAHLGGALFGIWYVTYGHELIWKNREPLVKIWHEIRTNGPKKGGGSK
UniProt Q8WW12: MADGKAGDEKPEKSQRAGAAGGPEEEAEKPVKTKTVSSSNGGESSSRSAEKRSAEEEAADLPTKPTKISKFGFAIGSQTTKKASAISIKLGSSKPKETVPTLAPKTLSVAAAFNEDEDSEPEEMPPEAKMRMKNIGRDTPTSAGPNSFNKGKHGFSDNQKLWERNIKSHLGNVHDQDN
UniProt P09874, whole entry, looked up: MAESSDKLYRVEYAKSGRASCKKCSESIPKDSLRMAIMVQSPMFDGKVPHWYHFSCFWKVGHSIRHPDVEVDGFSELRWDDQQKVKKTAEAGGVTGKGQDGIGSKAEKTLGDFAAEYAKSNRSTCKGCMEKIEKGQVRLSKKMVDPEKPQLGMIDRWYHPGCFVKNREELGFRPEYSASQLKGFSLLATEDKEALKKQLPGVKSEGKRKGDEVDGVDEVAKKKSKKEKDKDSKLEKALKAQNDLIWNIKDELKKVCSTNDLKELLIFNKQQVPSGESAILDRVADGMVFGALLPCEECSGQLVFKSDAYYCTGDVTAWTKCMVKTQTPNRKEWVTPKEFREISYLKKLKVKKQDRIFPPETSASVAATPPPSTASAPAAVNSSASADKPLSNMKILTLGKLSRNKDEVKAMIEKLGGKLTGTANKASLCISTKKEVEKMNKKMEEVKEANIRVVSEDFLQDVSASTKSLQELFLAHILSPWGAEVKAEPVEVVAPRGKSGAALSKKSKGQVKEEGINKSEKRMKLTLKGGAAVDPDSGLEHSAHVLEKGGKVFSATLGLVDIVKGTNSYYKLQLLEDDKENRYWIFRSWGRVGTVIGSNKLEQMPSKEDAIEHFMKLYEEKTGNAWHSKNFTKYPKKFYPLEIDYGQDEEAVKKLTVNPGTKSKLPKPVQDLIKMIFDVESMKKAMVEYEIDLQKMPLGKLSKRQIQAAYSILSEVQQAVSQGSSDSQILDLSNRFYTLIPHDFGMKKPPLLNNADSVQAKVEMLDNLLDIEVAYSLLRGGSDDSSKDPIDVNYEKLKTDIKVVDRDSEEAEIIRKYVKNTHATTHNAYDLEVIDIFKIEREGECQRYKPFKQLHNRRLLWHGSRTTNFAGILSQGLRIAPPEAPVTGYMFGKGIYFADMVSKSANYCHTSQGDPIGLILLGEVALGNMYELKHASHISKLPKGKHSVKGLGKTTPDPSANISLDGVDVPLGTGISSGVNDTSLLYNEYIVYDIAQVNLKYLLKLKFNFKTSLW
UniProt Q13310, whole entry, looked up: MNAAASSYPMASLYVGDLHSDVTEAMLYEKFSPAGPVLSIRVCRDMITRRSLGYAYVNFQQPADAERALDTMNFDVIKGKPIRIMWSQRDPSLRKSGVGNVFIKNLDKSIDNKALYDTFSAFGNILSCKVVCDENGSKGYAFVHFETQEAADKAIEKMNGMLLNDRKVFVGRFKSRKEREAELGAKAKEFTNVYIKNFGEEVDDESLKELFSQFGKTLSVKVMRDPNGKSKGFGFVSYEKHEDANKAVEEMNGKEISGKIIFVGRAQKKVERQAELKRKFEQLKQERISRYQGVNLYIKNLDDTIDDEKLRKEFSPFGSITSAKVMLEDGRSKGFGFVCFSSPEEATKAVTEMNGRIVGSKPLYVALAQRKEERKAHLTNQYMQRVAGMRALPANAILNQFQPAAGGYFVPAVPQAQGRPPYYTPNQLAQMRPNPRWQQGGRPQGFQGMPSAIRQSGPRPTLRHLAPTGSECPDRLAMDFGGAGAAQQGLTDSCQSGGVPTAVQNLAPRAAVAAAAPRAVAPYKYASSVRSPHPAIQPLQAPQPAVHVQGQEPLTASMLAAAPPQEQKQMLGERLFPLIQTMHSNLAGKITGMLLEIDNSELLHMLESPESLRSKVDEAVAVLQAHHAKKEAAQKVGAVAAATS
UniProt Q9BYG5: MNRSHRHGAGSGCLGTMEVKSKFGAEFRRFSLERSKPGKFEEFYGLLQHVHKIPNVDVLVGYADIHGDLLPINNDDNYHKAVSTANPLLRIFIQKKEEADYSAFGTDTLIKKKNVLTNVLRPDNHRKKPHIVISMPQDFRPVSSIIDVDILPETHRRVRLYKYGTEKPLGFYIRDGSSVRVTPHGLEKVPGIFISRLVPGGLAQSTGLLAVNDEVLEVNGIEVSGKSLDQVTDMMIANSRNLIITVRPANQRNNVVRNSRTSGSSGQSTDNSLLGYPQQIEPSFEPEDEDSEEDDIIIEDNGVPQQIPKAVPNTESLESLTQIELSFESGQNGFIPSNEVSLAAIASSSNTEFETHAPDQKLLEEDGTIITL
UniProt P13667: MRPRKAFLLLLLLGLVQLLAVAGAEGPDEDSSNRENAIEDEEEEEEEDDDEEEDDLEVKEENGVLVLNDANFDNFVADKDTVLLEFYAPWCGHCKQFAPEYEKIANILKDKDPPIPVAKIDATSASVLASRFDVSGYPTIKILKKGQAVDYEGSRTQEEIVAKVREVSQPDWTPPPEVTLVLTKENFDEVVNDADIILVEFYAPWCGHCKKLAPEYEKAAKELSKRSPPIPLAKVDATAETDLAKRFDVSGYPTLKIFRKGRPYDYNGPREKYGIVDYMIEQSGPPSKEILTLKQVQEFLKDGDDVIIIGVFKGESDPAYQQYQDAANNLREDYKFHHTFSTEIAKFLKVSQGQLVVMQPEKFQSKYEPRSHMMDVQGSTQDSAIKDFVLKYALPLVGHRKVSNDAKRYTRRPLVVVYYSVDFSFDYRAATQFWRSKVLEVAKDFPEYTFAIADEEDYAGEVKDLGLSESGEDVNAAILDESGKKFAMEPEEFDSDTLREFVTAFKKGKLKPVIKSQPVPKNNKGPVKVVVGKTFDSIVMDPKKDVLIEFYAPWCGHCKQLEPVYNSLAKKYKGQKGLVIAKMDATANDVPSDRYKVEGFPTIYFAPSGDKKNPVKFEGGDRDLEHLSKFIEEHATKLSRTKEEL
UniProt Q5VU43: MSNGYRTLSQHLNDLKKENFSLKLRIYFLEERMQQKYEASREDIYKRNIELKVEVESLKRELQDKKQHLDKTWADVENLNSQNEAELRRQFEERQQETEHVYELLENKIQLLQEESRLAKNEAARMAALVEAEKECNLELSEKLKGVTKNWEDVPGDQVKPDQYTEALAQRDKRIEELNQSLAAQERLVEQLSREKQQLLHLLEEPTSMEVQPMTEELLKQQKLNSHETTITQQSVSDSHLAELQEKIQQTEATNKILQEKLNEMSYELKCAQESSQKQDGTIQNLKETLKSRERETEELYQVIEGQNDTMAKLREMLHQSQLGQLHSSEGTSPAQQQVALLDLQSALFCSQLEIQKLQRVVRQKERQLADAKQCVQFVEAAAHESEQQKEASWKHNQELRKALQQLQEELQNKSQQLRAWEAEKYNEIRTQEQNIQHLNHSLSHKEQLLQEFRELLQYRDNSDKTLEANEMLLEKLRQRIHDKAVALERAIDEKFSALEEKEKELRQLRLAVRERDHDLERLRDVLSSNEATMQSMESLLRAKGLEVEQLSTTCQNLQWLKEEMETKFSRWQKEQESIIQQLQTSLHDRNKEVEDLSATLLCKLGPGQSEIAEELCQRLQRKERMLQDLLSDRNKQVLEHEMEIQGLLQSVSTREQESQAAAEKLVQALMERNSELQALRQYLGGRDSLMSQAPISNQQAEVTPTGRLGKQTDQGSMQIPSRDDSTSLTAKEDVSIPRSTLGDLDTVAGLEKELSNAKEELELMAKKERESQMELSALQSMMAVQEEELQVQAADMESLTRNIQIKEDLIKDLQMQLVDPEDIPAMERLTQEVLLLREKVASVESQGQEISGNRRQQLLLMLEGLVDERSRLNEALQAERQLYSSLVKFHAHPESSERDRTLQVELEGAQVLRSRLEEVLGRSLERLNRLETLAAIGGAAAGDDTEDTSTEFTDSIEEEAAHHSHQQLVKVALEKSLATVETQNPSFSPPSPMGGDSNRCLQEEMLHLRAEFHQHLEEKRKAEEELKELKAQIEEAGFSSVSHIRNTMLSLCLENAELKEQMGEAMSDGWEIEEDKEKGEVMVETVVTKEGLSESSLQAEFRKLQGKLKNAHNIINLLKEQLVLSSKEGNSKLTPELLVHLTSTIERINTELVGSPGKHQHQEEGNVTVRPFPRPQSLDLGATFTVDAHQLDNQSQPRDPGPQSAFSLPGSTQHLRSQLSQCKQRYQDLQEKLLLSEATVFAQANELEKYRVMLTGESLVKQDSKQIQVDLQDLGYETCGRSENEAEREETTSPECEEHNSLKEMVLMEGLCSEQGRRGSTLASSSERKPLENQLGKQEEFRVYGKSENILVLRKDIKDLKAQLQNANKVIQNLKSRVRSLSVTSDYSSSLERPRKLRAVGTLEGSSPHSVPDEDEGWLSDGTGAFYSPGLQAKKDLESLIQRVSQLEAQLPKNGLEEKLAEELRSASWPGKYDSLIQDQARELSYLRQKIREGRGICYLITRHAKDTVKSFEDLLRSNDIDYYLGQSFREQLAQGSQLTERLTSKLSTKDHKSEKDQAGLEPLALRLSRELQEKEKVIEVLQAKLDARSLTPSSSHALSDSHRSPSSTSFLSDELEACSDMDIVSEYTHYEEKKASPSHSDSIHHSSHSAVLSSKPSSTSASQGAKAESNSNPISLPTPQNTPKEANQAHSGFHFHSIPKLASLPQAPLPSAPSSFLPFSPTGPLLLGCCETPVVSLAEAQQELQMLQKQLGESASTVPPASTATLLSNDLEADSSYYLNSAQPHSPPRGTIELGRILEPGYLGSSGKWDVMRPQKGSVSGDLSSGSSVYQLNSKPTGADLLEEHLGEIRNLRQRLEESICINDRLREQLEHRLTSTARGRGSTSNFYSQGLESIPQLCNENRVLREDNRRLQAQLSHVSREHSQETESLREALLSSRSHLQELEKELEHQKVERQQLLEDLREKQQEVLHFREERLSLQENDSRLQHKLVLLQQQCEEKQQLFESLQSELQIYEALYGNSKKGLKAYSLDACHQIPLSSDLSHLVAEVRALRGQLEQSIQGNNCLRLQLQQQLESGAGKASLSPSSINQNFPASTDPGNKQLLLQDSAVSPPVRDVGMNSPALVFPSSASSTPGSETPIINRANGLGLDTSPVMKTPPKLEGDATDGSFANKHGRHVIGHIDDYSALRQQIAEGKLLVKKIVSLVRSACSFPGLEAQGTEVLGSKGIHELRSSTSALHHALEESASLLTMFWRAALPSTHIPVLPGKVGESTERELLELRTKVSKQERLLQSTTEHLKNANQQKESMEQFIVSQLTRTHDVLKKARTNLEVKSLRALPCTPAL

Experiments:
Experiment in all cases: log2 fold change, soluble protein after heating vs DMSO (PISA); higher = thermal stabilisation; K562 cells, 10 uM, 30 min; active = over 0.2 and 3.5 SD of the protein, either way, in both replicates (recomputed)
[1] = compound: COC1=CC=C(C=C1)CN2C=CC3=C2C=C(C=C3)C(=O)NO
Outline: (§1)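 For each measurement, 10 μM compound was applied for 30 min to K562 cells at 2×10^6 cells/mL. Aliquots were heated for 3 min across 48°C-58°C, pooled, and extracted in PBS with 0.5% NP-40 at 4°C; the supernatant after 21,000xg for 90 min was soluble protein. This was quantified by TMTpro 16plex LC-MS/MS with channel sums equalised, and thermal stability was reported relative to control samples from duplicates, on a log2 fold-change scale.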

filanesib = compound: CON(C)C(=O)N1N=C(c2cc(F)ccc2F)S[C@@]1(CCCN)c1ccccc1 [filanesib]
Outline: as §1

zotarolimus = compound: CO[C@H]1C[C@@H]2CC[C@@H](C)[C@@](O)(O2)C(=O)C(=O)N2CCCC[C@H]2C(=O)O[C@H]([C@H](C)C[C@@H]2CC[C@H](n3cnnn3)[C@H](OC)C2)CC(=O)[C@H](C)/C=C(\C)[C@@H](O)[C@@H](OC)C(=O)[C@H](C)C[C@H](C)/C=C/C=C/C=C/1C [zotarolimus]
Outline: as §1

idasanutlin = compound: COc1cc(C(=O)O)ccc1NC(=O)[C@@H]1N[C@@H](CC(C)(C)C)[C@](C#N)(c2ccc(Cl)cc2F)[C@H]1c1cccc(Cl)c1F [idasanutlin]
Outline: as §1

alisertib = compound: COc1cc(Nc2ncc3c(n2)-c2ccc(Cl)cc2C(c2c(F)cccc2OC)=NC3)ccc1C(=O)O [alisertib]
Outline: as §1

[2] = compound: COc1cc2nc(-c3cc(F)ccc3O)nc(N[C@@H]3CNC[C@H]3C(C)(C)O)c2cc1OC
Outline: as §1

gefitinib = compound: COc1cc2ncnc(Nc3ccc(F)c(Cl)c3)c2cc1OCCCN1CCOCC1 [gefitinib]
Outline: as §1

[3] = compound: COc1cccc2cc(-c3nc([C@H]4CC[C@H](C(=O)O)CC4)n4ncnc(N)c34)[nH]c12
Outline: as §1

lapatinib = compound: CS(=O)(=O)CCNCc1ccc(-c2ccc3ncnc(Nc4ccc(OCc5cccc(F)c5)c(Cl)c4)c3c2)o1 [lapatinib]
Outline: as §1

pictilisib = compound: CS(=O)(=O)N1CCN(Cc2cc3nc(-c4cccc5[nH]ncc45)nc(N4CCOCC4)c3s2)CC1 [pictilisib]
Outline: as §1

Measured: log2 fold change

PANK2 (UniProt Q9BZ23)
inactive: [1] -0.022 | filanesib -0.144 | zotarolimus 0.069 | idasanutlin 0.103 | alisertib -0.06 | [2] 0.052 | gefitinib 0.013 | [3] 0.06 | lapatinib -0.04 | pictilisib 0.049

PDE2A (UniProt O00408)
inactive: [1] 0.172 | filanesib -0.118 | zotarolimus 0.001 | idasanutlin -0.089 | alisertib -0.053 | [2] 0.134 | gefitinib -0.004 | [3] 0.027 | lapatinib -0.014 | pictilisib 0.148

PDCL3 (UniProt Q9H2J4)
inactive: [1] -0.017 | filanesib -0.023 | zotarolimus 0.003 | idasanutlin -0.048 | alisertib -0.063 | [2] 0.011 | gefitinib 0.011 | [3] 0.019 | lapatinib 0.013 | pictilisib 0.012

PARL (UniProt Q9H300)
inactive: [1] -0.061 | filanesib -0.091 | zotarolimus -0.034 | idasanutlin -0.068 | alisertib -0.016 | [2] -0.2 | gefitinib 0.038 | [3] 0.08 | lapatinib 0.04 | pictilisib 0.011

PBX2 (UniProt P40425)
inactive: [1] 0.132 | filanesib -0.055 | zotarolimus 0.115 | idasanutlin 0.102 | alisertib -0.027 | [2] -0.114 | gefitinib -0.02 | [3] 0 | lapatinib 0.014 | pictilisib 0.01

PBK (UniProt Q96KB5)
inactive: [1] -0.01 | filanesib 0.056 | zotarolimus 0.112 | idasanutlin 0.027 | alisertib -0.032 | [2] 0.014 | gefitinib 0.084 | [3] -0.169 | lapatinib -0.001 | pictilisib 0.086

PCBD1 (UniProt P61457)
inactive: [1] -0.047 | filanesib 0.024 | zotarolimus -0.059 | idasanutlin 0 | alisertib -0.096 | [2] -0.045 | gefitinib 0.003 | [3] 0.069 | lapatinib -0.019 | pictilisib 0.035

PDCL (UniProt Q13371)
inactive: [1] 0.009 | filanesib -0.009 | zotarolimus -0.048 | idasanutlin -0.006 | alisertib -0.166 | [2] 0.038 | gefitinib -0.008 | [3] -0.022 | lapatinib 0.032 | pictilisib 0.016

PARS2 (UniProt Q7L3T8)
inactive: [1] 0.107 | filanesib 0.007 | zotarolimus 0.025 | idasanutlin 0.022 | alisertib -0.094 | [2] 0.042 | gefitinib -0.019 | [3] -0.027 | lapatinib 0.023 | pictilisib 0.063

PDLIM4 (UniProt P50479)
inactive: [1] -0.01 | filanesib 0.014 | zotarolimus -0.022 | idasanutlin -0.01 | alisertib -0.086 | [2] 0.038 | gefitinib -0.002 | [3] 0.01 | lapatinib 0.018 | pictilisib 0.007

PCNP (UniProt Q8WW12)
inactive: [1] 0.158 | filanesib -0.027 | zotarolimus -0.038 | idasanutlin 0.016 | alisertib -0.016 | [2] -0.01 | gefitinib -0.015 | [3] 0.035 | lapatinib 0.009 | pictilisib 0

PARP1 (UniProt P09874)
inactive: [1] 0.091 | filanesib -0.043 | zotarolimus 0.048 | idasanutlin -0.047 | alisertib 0.039 | [2] 0.147 | gefitinib 0.062 | [3] -0.062 | lapatinib -0.082 | pictilisib 0.008

PCBP2 (UniProt F8VRH0)
inactive: [1] 0.139 | filanesib 0.107 | zotarolimus 0.013 | idasanutlin 0.218 | alisertib 0.305 | [2] -0.34 | gefitinib 0.055 | [3] -0.21 | lapatinib 0.06 | pictilisib -0.231

Fetched one by one from the list above (two):
PCNP (UniProt Q8WW12)
inactive: [1] 0.158 | filanesib -0.027 | zotarolimus -0.038 | idasanutlin 0.016 | alisertib -0.016 | [2] -0.01 | gefitinib -0.015 | [3] 0.035 | lapatinib 0.009 | pictilisib 0

PDLIM4 (UniProt P50479)
inactive: [1] -0.01 | filanesib 0.014 | zotarolimus -0.022 | idasanutlin -0.01 | alisertib -0.086 | [2] 0.038 | gefitinib -0.002 | [3] 0.01 | lapatinib 0.018 | pictilisib 0.007

(listing goes on)

PEX12 (UniProt O00623)
inactive: [1] 0.095 | filanesib -0.055 | zotarolimus -0.112 | idasanutlin -0.073 | alisertib -0.023 | [2] -0.111 | gefitinib 0.001 | [3] -0.046 | lapatinib 0.014 | pictilisib -0.11

PARG (UniProt Q86W56)
inactive: [1] 0.065 | filanesib -0.057 | zotarolimus 0.048 | idasanutlin -0.093 | alisertib -0.114 | [2] 0.013 | gefitinib 0.023 | [3] 0.094 | lapatinib 0.013 | pictilisib -0.023

PAK3 isoform 3 (UniProt O75914)
inactive: [1] -0.012 | filanesib -0.117 | zotarolimus 0.016 | idasanutlin -0.013 | alisertib -0.051 | [2] -0.019 | gefitinib 0.006 | [3] -0.005 | lapatinib 0.011 | pictilisib -0.037

PABPC4 isoform 3 (UniProt Q13310)
inactive: [1] 0.003 | filanesib 0.088 | zotarolimus -0.035 | idasanutlin 0.099 | alisertib -0.046 | [2] -0.04 | gefitinib -0.033 | [3] -0.095 | lapatinib 0.048 | pictilisib -0.091

PACS1 (UniProt Q6VY07)
inactive: [1] 0.105 | filanesib 0.047 | zotarolimus 0.008 | idasanutlin -0.005 | alisertib 0.006 | [2] 0.054 | gefitinib 0.043 | [3] 0.002 | lapatinib 0.013 | pictilisib 0.021

PAFAH1B1 (UniProt P43034)
inactive: [1] -0.11 | filanesib -0.013 | zotarolimus 0.015 | idasanutlin -0.009 | alisertib -0.014 | [2] 0.024 | gefitinib 0.008 | [3] 0.046 | lapatinib -0.015 | pictilisib 0.023

PARD6B (UniProt Q9BYG5)
inactive: [1] 0.037 | filanesib 0.044 | zotarolimus -0.008 | idasanutlin -0.181 | alisertib -0.1 | [2] -0.19 | gefitinib -0.012 | [3] 0.064 | lapatinib 0.035 | pictilisib -0.14

PCLAF (UniProt Q15004)
inactive: [1] -0.115 | filanesib 0.158 | zotarolimus -0.172 | idasanutlin 0.066 | alisertib -0.035 | [2] -0.018 | gefitinib -0.057 | [3] -0.162 | lapatinib 0.033 | pictilisib -0.015

PCYT2 isoform 3 (UniProt Q99447)
inactive: [1] 0.018 | filanesib -0.094 | zotarolimus -0.008 | idasanutlin -0.026 | alisertib -0.05 | [2] 0.061 | gefitinib -0.013 | [3] 0.045 | lapatinib 0.024 | pictilisib -0.014

PDRG1 (UniProt Q9NUG6)
inactive: [1] -0.017 | filanesib -0.034 | zotarolimus 0.038 | idasanutlin -0.001 | alisertib -0.017 | [2] -0.001 | gefitinib 0 | [3] -0.009 | lapatinib -0.001 | pictilisib 0.045

PANK4 (UniProt Q9NVE7)
inactive: [1] 0.091 | filanesib 0.009 | zotarolimus 0.182 | idasanutlin 0.198 | alisertib -0.073 | [2] 0.174 | gefitinib -0.045 | [3] 0.041 | lapatinib -0.054 | pictilisib -0.031

PCBP1 (UniProt Q15365)
inactive: [1] 0.076 | filanesib -0.036 | zotarolimus 0.102 | idasanutlin -0.044 | alisertib -0.015 | [2] -0.014 | gefitinib -0.003 | [3] -0.003 | lapatinib -0.022 | pictilisib -0.036

PDLIM1 (UniProt O00151)
inactive: [1] 0.008 | filanesib -0.009 | zotarolimus 0.008 | idasanutlin 0.007 | alisertib -0.105 | [2] -0.04 | gefitinib -0.008 | [3] 0.009 | lapatinib 0.011 | pictilisib 0.032

PDIA6 isoform 2 (UniProt Q15084)
inactive: [1] 0.001 | filanesib 0.012 | zotarolimus -0.044 | idasanutlin 0.021 | alisertib -0.058 | [2] 0.023 | gefitinib 0.047 | [3] -0.001 | lapatinib -0.042 | pictilisib -0.066

PDIA4 (UniProt P13667)
inactive: [1] -0.036 | filanesib 0.046 | zotarolimus 0.046 | idasanutlin 0.014 | alisertib -0.071 | [2] 0.002 | gefitinib -0.033 | [3] -0.082 | lapatinib 0.021 | pictilisib -0.074

PDE4DIP isoform 4 (UniProt Q5VU43)
inactive: [1] 0.113 | filanesib -0.057 | zotarolimus -0.046 | idasanutlin 0.055 | alisertib -0.102 | [2] 0.024 | gefitinib 0.024 | [3] -0.022 | lapatinib -0.005 | pictilisib 0.042
